Reference: article PMC5750225
The exact form of at least one protein or probe is not confirmed. Where cells or extracts were used, other partners may take part. For part of these data: A negative result means that nothing was seen under these conditions.

Protein sequences, listed by entry. Tags and fused reporters are not part of them.
UniProt P11940, whole entry: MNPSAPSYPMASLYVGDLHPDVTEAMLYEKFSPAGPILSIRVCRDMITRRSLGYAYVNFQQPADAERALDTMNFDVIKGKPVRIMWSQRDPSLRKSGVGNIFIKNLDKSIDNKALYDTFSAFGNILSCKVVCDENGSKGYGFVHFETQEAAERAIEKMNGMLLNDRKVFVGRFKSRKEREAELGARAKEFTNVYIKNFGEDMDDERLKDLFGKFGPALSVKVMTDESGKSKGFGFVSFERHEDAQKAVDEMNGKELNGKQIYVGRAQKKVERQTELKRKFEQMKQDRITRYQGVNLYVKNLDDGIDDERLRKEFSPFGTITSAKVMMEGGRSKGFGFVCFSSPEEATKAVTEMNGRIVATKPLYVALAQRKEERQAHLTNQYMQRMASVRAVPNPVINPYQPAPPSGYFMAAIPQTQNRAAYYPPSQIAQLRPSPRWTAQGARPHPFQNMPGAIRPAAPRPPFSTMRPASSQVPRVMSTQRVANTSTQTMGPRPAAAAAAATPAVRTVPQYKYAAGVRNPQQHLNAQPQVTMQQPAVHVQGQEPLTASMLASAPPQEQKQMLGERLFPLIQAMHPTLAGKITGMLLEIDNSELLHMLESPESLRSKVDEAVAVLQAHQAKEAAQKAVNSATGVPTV

Key:
[1] = molecular target: PABP (endogenous, U2OS cytoplasmic/whole-cell lysate) (UniProt P11940); assay: biotin pull-down with PABP immunoblot; conditions: diminished in PABP-depleted lysate, 2'-O-methyl throughout, phosphorothioate at the 5' and 3' terminal linkages, Pull-down: lysate in 50 mM Tris pH 8, 1 mM EDTA, 2 mM MgCl2, 150 mM NaCl, 0.5% NP40, on ice then 4 °C, protein in an extract, label: 3' biotin, synthetic backbone
[2] = molecular target: PABP (endogenous, U2OS cytoplasmic/whole-cell lysate) (UniProt P11940); assay: EMSA; conditions: 2'-O-methyl throughout, EMSA: 10 mM HEPES pH 7.4, 50 mM NaCl, 1 mM EDTA, 0.1 mg/mL BSA, 0.01% Tween-20, 0.1 mg/mL yeast tRNA, on ice, protein in an extract, synthetic backbone

Q: Does “AAAAAAAAAAAA [Poly(A) SPOT-ON, 3' biotin]” bind [1]?
A: binds

Q: Does AAAAAAAAAAAA [Poly(A) SPOT-ON] bind ([2]; band greatly reduced (53%) on PAIP depletion of PABP, phosphorothioate at the 5' and 3' terminal linkages (A*AAAAAAAAAA*A))?
A: binds

Q: Does UAACAAAAUAAU [scramble SPOT-ON] bind ([2]; no clear binding to any species, phosphorothioate at the 5' and 3' terminal linkages (U*AACAAAAUAA*U))?
A: no binding
